According to US20210130491A1:
Results are given in words; binding and its absence hold for the method and conditions named. Some results given as binding are weak or reduced against the parent protein; the word gives no strength. Sequences can lack the tags named with a protein. Blank lines part the entries; values can stand above or below the binder they belong to.

Molecular target: T1, His-MRS (human) (UniProt P56192)
T1 sequence: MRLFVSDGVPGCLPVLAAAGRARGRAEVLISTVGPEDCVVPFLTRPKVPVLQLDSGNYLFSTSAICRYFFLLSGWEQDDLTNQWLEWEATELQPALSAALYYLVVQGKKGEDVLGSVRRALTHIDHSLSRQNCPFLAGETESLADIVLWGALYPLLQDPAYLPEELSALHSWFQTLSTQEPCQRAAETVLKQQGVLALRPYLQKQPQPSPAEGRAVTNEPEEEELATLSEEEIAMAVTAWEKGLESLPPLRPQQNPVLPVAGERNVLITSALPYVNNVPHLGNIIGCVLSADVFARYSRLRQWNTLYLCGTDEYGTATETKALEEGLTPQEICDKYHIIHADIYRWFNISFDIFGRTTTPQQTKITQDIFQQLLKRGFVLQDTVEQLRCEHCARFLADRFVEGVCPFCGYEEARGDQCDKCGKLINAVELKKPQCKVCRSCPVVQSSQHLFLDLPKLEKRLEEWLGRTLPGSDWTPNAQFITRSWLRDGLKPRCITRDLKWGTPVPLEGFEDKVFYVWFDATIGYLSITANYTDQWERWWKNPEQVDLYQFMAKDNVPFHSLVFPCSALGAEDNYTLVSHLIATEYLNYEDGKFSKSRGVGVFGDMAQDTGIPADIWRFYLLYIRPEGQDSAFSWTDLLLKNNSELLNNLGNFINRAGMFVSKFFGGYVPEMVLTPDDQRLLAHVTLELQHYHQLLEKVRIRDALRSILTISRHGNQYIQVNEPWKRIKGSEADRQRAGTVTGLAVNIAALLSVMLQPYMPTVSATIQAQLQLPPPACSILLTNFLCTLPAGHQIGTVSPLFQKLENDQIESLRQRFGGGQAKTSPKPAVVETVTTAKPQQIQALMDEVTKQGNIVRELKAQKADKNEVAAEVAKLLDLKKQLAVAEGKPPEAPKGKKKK
Test: ELISA, His-MRS coated at 1 ug/ml, antibody 500 ng/ml

- binding: binds
B1: 1E8 antibody (1E8 IgG) (antibody, V domains shown)
VH: DVKLQESGPGLVNPSQSLSLTCTVTGYSITSDYAWNWIRQFPGNKLEWMGYISYSGRTSYKSSLKSRISITRDTSKNQFFLELNSVTTEDTATYYCARDYGNFVGYFDVWGAGTTVTVSS
VL: DIVMTQSPSSLAVSVGEKVTMSCKSSQSLLYSSNQKNYLAWYQQKPGQSPKLLIYWASTRESGVPDRFTGSGSGTEFTLTISSVKAEDLAVYYCQQYYSYPTFGGGTKLEIKA

- binding: binds
B2: 8A12 antibody (8A12 IgG) (antibody, V domains shown)
VH: DVKLQESGPGLVKPSQSLSLTCTVTGYSITSEYAWTWIRQFPGNKLEWMGYINYNGNTNLNPSLKSRISIIRDTSKNQFFLQLNSVTTEDTATYYCARSLWPRGWFAYWGQGTLVTVSA
VL: DIQMTQSPSSMYASLGERVTITCKASQDINSYLSWFQQKPGKSPKTLMYRANRLVDGVPSRFSGSGSGQDYSLTISSLEYEDMGIYYCLQYDEFPRTFGGGTKLEIKA
